Drawing on PMC12516185, this text covers binding for 1 substance.

These are yes or no findings as the source states them, for the method shown. In cells and extracts the contact can be indirect. A result given as binding can be weak or reduced; the word gives no strength.

The assay concerns the target T1, native isoamylase1 (ISA1) of maize endosperm (maize (endogenous in endosperm)) (UniProt O22637).
T1 sequence: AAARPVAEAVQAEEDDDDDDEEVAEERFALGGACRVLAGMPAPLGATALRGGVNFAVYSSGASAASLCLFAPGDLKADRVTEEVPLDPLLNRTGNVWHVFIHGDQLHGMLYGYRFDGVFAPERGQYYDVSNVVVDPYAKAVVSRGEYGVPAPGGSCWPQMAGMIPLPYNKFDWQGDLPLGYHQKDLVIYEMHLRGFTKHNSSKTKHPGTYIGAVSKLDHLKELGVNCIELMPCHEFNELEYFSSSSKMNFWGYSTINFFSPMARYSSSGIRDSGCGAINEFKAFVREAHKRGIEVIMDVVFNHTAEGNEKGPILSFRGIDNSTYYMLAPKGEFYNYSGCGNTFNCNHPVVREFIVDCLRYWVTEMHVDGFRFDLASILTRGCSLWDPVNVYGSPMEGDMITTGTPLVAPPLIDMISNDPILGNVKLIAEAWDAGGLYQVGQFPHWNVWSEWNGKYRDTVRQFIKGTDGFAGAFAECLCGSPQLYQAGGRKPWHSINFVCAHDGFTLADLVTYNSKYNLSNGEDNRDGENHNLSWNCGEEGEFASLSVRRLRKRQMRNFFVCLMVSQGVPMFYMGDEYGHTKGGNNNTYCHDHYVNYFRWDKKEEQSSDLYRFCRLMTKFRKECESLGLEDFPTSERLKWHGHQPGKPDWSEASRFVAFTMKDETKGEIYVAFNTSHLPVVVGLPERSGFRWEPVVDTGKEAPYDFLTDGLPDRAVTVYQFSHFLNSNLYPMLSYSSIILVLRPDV
Nature of the assay: co-IP; total soluble endosperm extract (about 500 ug protein) incubated with anti-ISA1 IgG on protein A-Sepharose in PBS on ice for 60 min; washed 5 times in PBS with 1% NP-40; immunoblot with anti-ISA1 IgG or anti-ZPU1 serum; controls were su1-4582 and zpu1-204 null extracts. For orientation: Immunoblotting shows a protein as a band on a membrane.

For the substance “native pullulanase1 (ZPU1) of maize endosperm (enzyme)”, the binding entry is recorded as “binds”.
